Laboratory results reported in publication PMC3628100.
These are yes or no findings as the source states them, for the method shown. In cells and extracts the contact can be indirect. Some results given as binding are weak or reduced against the parent protein; the word gives no strength.

Molecular target: T1, SREBP1 (sterol regulatory element binding protein 1), endogenous in rat cortical neurons (rat (endogenous in primary cortical neurons)) (UniProt P56720)
T1 sequence: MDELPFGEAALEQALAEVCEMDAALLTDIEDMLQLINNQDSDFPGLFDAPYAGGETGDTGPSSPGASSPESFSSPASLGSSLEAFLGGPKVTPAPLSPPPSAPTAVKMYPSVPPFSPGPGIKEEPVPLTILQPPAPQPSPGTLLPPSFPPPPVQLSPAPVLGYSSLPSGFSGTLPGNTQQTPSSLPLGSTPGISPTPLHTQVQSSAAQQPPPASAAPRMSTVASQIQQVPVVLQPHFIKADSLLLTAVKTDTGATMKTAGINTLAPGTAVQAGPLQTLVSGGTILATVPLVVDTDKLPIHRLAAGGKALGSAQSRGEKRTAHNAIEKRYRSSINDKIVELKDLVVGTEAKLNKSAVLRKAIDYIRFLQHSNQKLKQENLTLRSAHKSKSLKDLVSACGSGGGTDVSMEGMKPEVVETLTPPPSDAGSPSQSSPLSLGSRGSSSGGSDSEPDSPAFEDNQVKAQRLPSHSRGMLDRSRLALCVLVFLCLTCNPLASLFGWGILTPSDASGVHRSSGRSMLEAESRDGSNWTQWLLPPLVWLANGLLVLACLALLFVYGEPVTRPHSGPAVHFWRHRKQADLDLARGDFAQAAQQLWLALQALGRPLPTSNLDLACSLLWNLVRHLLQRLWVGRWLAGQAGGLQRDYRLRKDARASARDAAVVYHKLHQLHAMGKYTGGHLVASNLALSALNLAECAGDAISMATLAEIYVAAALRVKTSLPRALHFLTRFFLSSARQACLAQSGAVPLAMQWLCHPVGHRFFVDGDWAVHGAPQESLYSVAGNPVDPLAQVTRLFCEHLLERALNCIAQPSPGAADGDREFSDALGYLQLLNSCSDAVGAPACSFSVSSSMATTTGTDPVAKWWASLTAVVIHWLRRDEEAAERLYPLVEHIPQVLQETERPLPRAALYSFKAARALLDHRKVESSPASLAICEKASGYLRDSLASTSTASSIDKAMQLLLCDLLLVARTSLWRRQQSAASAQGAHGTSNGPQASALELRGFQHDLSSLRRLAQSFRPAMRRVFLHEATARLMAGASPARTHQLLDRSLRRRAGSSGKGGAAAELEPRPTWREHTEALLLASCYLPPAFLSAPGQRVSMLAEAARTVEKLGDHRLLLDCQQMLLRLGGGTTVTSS
Assay: co-IP; lysates of primary rat cortical neurons (control or virus-infected), 500 µg protein, precipitated with 2 µg anti-N-terminus SREBP1 antibody H-160 overnight at 4°C, protein A-sepharose; 25 mM Tris pH 6.8, 0.5% Triton X-100, 0.5% Nonidet P-40; Western blot

binding: binds
B1: SCAP (SREBP-cleavage-activating protein), endogenous in rat cortical neurons (protein, UniProt A2RRU4 1-1276)
chain: MTLTERLREKISQAFYNHGLLCASYPIPIILFTGLCILACCYPLLKLPLPGTGPVEFSTPVKGYSPPPADSDHKQGEPSEQPEWYVGAPVAYIQQIFVKSSVSPWHRNLLAVDVFRSPLSRAFQLVEEIRNHVLRDSSGTKSLEEVCLQVTDLLPGLRKLRSLLPEHGCLLLSPGNFWQNDWERFHADPDIIGTIHQHEPKTLQTSATLKDLLFGVPGKYSGVSLYTRKRMVSYTITLVFQRYHAKFLSSLRARLMLLHPSPNCSLRAENLVHVHFKEEIGIAELIPLVTTYIILFAYIYFSTRKIDMVKSKWGLALAAVVTVLSSLLMSVGLCTLFGLTPTLNGGEIFPYLVVVIGLENVLVLTKSVVSTPVDLEVKLRIAQGLSSESWSIMKNVATELGIILIGYFTLVPAIQEFCLFAVVGLVSDFFLQMLFFTTVLSIDIRRMELADLNKRLPPESCLPSAKPVGRPARYERQLAVRPSTPHTITLQPSSFRNLRLPKRLRVIYFLARTRLAQRLIMAGTVVWIGILVYTDPAGLRTYLAAQVTEQSPLGEGSLGPMPVPSGVLPASHPDPAFSIFPPDAPKLPENQTLPGELPEHAVPAEGVQDSRAPEVTWGPEDEELWRKLSFRHWPTLFNYYNITLAKRYISLLPVIPVTLHLNPREALEGRHPQDGRTAWAPPEPLPAGLWETGPKGPGGTQTHGDITLYKVAALGLAAGIVLVLLLLCLYRVLCPRNYGQPGGGAGRRRRGELPCDDYGYAPPETEIVPLVLRGHLMDIECLASDGMLLVSCCLAGQVCVWDAQTGDCLTRIPRPGPRRDSCGGGAFEAQENWERLSDGGKASPEEPGDSPPLRRRPRGPPPPSLFGDQPDLTCLIDTNFSVQLPPEPTQPEPRHRAGCGRSRDSGYDFSRLVQRVYQEEGLAAVHMSALRPPSPGPPLPQASQEEGTAPEKGSPPLAWAPSTAGSIWSLELQGSLIVVGRSSGRLEVWDAIEGVLCCSNEEISSGITALVFLDRRIVAARLNGSLDFFSLETHTSLSPLQFRGTPGRGSSPSSPVYSSSNTVACHLTHTVPCAHQKPITALRAAAGRLVTGSQDHTLRVFRLEDSCCLFTLQGHSGAITTVYIDQTMVLASGGQDGAICLWDVLTGSRVSHTFAHRGDVTSLTCTTSCVISSGLDDFINIWDRSTGIKLYSIQQDLGCGASLGVISDNLLVTGGQGCVSFWDLNYGDLLQTVYLGKNSEAQPARQILVLDNAAIVCNFGSELSLVYVPSVLEKLD
